Reference: PubChem BioAssay AID1794845 (National Center for Advancing Translational Sciences (NCATS), 2023)
Among all 6,900 compounds or so, fewer than 10 were called active. The call rests on the fitted dose curve; in most records, active means well fitted curve in the direction sought with a large enough effect; inconclusive means small, poorly fitted or top-dose-only effect, or another doubt; inactive means no such curve, though single readings can be large or run the other way. This is one part of the list.

The chains behind the UniProt entries cited, without tags or fusion partners. Where a name states a change or a piece, a line headed by the entry shows the natural chain unless it says otherwise.
UniProt C7C422: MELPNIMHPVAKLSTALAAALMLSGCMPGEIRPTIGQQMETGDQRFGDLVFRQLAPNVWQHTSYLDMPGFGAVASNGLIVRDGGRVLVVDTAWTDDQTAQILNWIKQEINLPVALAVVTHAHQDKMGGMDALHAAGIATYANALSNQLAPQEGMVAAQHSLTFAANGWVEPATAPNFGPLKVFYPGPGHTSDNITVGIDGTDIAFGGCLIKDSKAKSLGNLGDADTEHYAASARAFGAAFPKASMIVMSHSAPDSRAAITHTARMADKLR

target: Metallo-beta-lactamase type 2 (Klebsiella pneumoniae) (UniProt C7C422); experiment: qHTS to identify inhibitors of the New Delhi Metallo-beta-lactamase (NDM): primary screen against the NCATS Gemini Collection; settings: NDM-1 enzyme, meropenem hydrolysis, absorbance 300 nm; at 38.4 µM (top of the series) unless noted; further: % of control where 0% means no effect
Outline: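 Meropenem hydrolysis (50 uM final) by 2 nM NDM-1 read as 300 nm absorbance after 30 min, following >30 min compound–enzyme preincubation in HEPES pH 7.0 with 1 uM ZnSO4 and 0.01% Tween20.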

Activity % (negative = inhibition), inactive:
O=c1cc(CN2CCCC(c3nccn3Cc3ccccc3)C2)[nH]c(=O)[nH]1 (stereo not given) 185%
COCCn1cnnc1C(C)NC(=O)CCc1nc(-c2ccccc2OC)no1 (stereo not given) 12.6%
O=C(c1ccccc1F)N1CCn2ncc(C(=O)N3CCOCC3)c2C1 -13.7%
CS(=O)(=O)c1ccc(OC[C@H]2C[C@@H](NC(=O)c3ccccc3)[C@H](O)[C@@H]2O)cc1 17.7% [at 57.5 µM]
O=C(NCCN1CCCCC1)C1CN(S(=O)(=O)c2cccnc2)CC12CCCCC2 (stereo not given) 10.8%
O=C(CCNc1c(-c2cccc(F)c2)nc2cnccn12)NCc1ccc(Cl)cc1 0.57%
Cc1nc(CCNc2cc(C3CC(O)C3)nc(N)n2)nc2c1CCC2 (stereo not given) -0.523%
CN1c2cc(C(=O)NC3CCCCCC3)ccc2C(=O)N2CCCC21 (stereo not given) 0.477%
Cc1nc([C@@H]2CN(C(=O)CCc3c[nH]c4ccccc34)C[C@H]2C(N)=O)n[nH]1 0.782%
O=C(NCC1CCCCCC1)C1CCN(Cc2ccccc2-c2cccnc2)CC1 12%
c1ccc(CCN2CCNc3cc(NCc4cccnc4)ncc3C2)cc1 35.2% [at 57.5 µM]
COC[C@H]1CCCN1c1nc(CCN)nc2sc(C)c(C)c12 20.6%
CNC(=O)c1cccc(-c2ccccc2COc2ccc(CCOC)cc2)n1 2.78%
Cn1ccnc1CN1C[C@@H](F)[C@@H](OCc2nc3ccccc3[nH]2)C1 10.8% [at 57.5 µM]
CCC1(N2CCN(C(=O)Nc3cc(C)ccc3OC)CC2)CCN(C(=O)C(C)C)C1 (stereo not given) 20.4%
Cc1ccccc1C(CC(=O)N1CCSCC1)c1ccccc1 (stereo not given) 0.408%
C[S+](=O)([O-])c1ccc(-c2cnc3n[nH]c(-c4ccccc4)c3n2)cc1 8.05% [at 57.5 µM]
COCCOCc1nc(C2CCCN2C(=O)Nc2ccc(F)cc2F)no1 (stereo not given) -10%
O=C(NCc1ccc(Cl)cc1)c1cc2cccnn2n1 11.1% [at 57.5 µM]
O=C(CN1CCCCC1)N1CCCC(N2CCN(Cc3ccc4c(c3)OCO4)CC2)C1 (stereo not given) 3.65%
CSc1cccc(CN(C)Cc2cc3n(n2)CCNC3)c1 0.138%
Cc1cc(C[C@@H]2COC[C@@H]2NC(=O)c2cccc(-n3nc(C)cc3C)c2)on1 1.08%
CCC(C)NC(=O)Cn1nc2n(c1=O)CCCCC2 (stereo not given) 0.148%
O=C(C1CC1)N1C[C@@H]2OCC(=O)N(Cc3ccc(F)cc3)[C@@H]2C1 0.688% [at 57.5 µM]
CC(=O)N1CCCC(c2nc(-c3ccc4nc[nH]c4c3)no2)C1 (stereo not given) 12.4%
CCS(=O)(=O)N1CCC(c2noc(COc3ccc(F)cc3)n2)C1 (stereo not given) -1.52%
CCC(O)CNC(=O)c1cn2cc(-c3ccc(F)cc3)n(CC=C(C)C)c(=O)c2n1 (stereo not given) -4.62%
COc1ccc(F)cc1-c1ccc(CN2CCC(N[S+](=O)([O-])c3cccs3)C2)cc1 (stereo not given) -1.15%
O[C@@H]1C[C@@H](c2nc(Cc3ccc(F)cc3Cl)no2)N(Cc2ccco2)C1 10.2% [at 57.5 µM]
Cn1ccc(C(=O)N2CCC3(CC2)CC(=O)N(C/C=C/c2ccccc2)C3)n1 4.48%
CN1C(=O)CC[C@]2(C(=O)N3CCN(c4ccccc4)CC3)CCCC[C@@H]12 -0.104%
O=C(c1ccccc1)N1CCC2(CC(Cc3ccccc3)=NO2)C1 (stereo not given) 9.1% [at 57.5 µM]
Cn1cccc1-c1noc(C2CCN(C(=O)CCn3cnc4ccccc43)C2)n1 (stereo not given) 4.07%
Cc1cccc(OCC(=O)NCc2nnc3c(-c4nc(C)no4)cccn23)c1 4.07%
CN(C)C(=O)C1=NOC2CN(C(=O)C3CC3)CC12 (stereo not given) 2.65% [at 57.5 µM]
CC(C)Cn1c(CN(C)CCC2CCCCO2)cnc1S(=O)(=O)Cc1ccccc1 (stereo not given) -0.11%
COc1ccc(CNCC2(CO)C[C@@H](O)[C@@H](O)C2)cc1 (stereo not given in full) -1.42% [at 77.1 µM]
COc1ccccc1Oc1ncccc1CNC(=O)Nc1cccc(C#N)c1 0.348%
COc1ccccc1-c1[nH]nc2ncc(C(=O)N3CCN(Cc4ccccc4)CC3)nc12 11.1% [at 57.5 µM]
O=C(NCC(F)(F)F)c1ccc2nnc(-c3cncc(Cl)c3)n2c1 9.5%
COc1ccccc1CC(=O)N1CCC(n2nccc2NC(=O)c2ccccc2C)CC1 -2.18%
CCOC(=O)N1CCC2(CC1)N=C(CCC(C)C)NC2=O 6.73%
CN(C(=O)CCS(=O)(=O)c1ccccc1)C1CCc2nn(C)c(=O)n2CC1 (stereo not given) 3.34%
CCc1cc(NCC(c2ccc(C)o2)N2CCOCC2)n2nccc2n1 (stereo not given) 0.529%
Cc1ccc(C2=NC3(CCN(C(=O)c4cnccn4)CC3)ON2)cc1 59.8%
Cc1ccc([S+](=O)([O-])NC2CCN(Cc3ccc(-c4ccsc4)cc3)C2)cc1 (stereo not given) 3.54%
O=C(c1cc(-c2ccccc2)nc2ccccc12)N1CCOCC(CO)C1 (stereo not given) 9.55%
COC1C(=O)N(C2CCN(C(=O)C3CC3)CC2)C12CCOCC2 (stereo not given) 11.7%
O=[S+]1([O-])NC2(CCN(Cc3ccncc3)CC2)CNc2ccccc21 0.184%
O=C1CCC2(CCCN(C(=O)c3ccc(=O)[nH]c3)C2)CN1CCc1cnc[nH]1 (stereo not given) 4.3%
Cc1noc(C)c1S(=O)(=O)N1CCC[C@H]1C(=O)N1CCCCCCNC(=O)CC1 32.3%
CCOCCCNC(=O)N1CCC2(CC1)CC(N(Cc1ccc(F)cc1)C1CC1)CCO2 (stereo not given) -0.207%
CNC(=O)N1CCC(C2CCN(C(=O)Cn3cccn3)C2)CC1 (stereo not given) -0.322%
CCn1ccc(C(=O)N2CC(c3nc(CCOCC4CC4)no3)C2)n1 -0.382%
O=C(N1CCCCC1)N1CCN(c2cc(Cl)ncn2)C(=O)C1 2.24%

At a glance, part of the list above.
Activity % (negative = inhibition), inactive:
O=C1CCC2(CCCN(C(=O)c3ccc(=O)[nH]c3)C2)CN1CCc1cnc[nH]1 (stereo not given) 4.3%
Cc1noc(C)c1S(=O)(=O)N1CCC[C@H]1C(=O)N1CCCCCCNC(=O)CC1 32.3%
CCOCCCNC(=O)N1CCC2(CC1)CC(N(Cc1ccc(F)cc1)C1CC1)CCO2 (stereo not given) -0.207%
